Results are given in words; binding and its absence hold for the method and conditions named. In cells and extracts the contact can be indirect. A yes stands for co-enrichment or nearness to the bait. Other partners may have been found. Tags and fused reporters may be left off the sequences shown.
Target: T1, Flag-tagged SPARC (secreted protein acidic and cysteine-rich), full length (1-303) (UniProt P09486)
T1 sequence: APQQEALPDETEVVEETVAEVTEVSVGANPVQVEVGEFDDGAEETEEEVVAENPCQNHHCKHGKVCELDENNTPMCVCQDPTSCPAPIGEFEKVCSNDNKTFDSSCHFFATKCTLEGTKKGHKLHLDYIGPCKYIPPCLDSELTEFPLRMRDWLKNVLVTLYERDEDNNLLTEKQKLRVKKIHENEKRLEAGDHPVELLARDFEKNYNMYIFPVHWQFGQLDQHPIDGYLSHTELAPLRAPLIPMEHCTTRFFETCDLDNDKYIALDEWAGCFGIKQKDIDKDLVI
Assay: affinity purification with mass spectrometry; Caco-2 cells transfected with Flag-SPARC, IP lysis buffer, anti-FLAG magnetic beads, washed 4 times with IP lysis buffer, SDS-PAGE, bands cut out, trypsin, LC-MS/MS

Sequences of proteins named here, by UniProt entry; tags and fusion partners are left off.
UniProt P19474: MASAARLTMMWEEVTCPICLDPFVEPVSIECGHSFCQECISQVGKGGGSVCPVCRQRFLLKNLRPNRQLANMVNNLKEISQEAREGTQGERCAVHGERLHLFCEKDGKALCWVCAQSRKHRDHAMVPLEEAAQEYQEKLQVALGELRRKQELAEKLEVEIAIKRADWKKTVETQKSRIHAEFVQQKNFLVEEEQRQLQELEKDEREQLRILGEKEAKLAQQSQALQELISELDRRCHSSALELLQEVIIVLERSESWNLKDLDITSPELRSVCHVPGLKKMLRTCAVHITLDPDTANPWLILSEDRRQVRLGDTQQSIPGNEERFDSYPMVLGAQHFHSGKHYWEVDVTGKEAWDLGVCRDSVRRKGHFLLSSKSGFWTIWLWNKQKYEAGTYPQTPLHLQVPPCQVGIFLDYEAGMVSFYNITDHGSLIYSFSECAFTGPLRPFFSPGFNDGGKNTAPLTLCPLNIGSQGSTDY

- binding: binds
Substance: TRIM21, endogenous in Caco-2 cells (from UniProt P19474 1-475) (enzyme)

Source: article PMC11923920
